Experimental data as given in paper PMC11460698.
No constants are given. Whether binding was seen depends on the method and setting. Binding seen in cells or lysates may run through a third protein. Some binding calls cover weakened binding; strength is not graded here.

The chains behind the UniProt entries cited, without tags or fusion partners. Where a name states a change or a piece, a line headed by the entry shows the natural chain unless it says otherwise.
UniProt P35222: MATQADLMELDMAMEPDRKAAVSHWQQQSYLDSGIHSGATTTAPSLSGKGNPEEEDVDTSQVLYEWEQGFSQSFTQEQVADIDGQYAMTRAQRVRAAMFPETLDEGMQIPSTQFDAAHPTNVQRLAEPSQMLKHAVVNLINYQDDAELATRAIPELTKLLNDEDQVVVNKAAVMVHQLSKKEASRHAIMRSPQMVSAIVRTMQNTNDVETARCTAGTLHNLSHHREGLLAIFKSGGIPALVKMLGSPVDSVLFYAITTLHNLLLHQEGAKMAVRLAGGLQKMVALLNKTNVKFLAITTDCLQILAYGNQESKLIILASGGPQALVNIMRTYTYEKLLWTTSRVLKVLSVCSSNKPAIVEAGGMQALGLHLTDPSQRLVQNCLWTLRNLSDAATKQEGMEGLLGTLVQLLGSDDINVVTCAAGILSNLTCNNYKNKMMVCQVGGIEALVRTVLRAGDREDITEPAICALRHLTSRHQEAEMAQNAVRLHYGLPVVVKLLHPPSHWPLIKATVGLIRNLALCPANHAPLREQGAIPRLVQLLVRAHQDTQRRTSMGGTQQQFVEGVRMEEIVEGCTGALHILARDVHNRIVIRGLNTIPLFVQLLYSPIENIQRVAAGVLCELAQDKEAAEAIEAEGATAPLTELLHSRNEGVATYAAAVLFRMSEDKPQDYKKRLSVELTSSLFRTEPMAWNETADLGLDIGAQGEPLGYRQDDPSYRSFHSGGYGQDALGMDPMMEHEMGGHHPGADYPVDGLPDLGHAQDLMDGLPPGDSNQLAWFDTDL
UniProt Q09472: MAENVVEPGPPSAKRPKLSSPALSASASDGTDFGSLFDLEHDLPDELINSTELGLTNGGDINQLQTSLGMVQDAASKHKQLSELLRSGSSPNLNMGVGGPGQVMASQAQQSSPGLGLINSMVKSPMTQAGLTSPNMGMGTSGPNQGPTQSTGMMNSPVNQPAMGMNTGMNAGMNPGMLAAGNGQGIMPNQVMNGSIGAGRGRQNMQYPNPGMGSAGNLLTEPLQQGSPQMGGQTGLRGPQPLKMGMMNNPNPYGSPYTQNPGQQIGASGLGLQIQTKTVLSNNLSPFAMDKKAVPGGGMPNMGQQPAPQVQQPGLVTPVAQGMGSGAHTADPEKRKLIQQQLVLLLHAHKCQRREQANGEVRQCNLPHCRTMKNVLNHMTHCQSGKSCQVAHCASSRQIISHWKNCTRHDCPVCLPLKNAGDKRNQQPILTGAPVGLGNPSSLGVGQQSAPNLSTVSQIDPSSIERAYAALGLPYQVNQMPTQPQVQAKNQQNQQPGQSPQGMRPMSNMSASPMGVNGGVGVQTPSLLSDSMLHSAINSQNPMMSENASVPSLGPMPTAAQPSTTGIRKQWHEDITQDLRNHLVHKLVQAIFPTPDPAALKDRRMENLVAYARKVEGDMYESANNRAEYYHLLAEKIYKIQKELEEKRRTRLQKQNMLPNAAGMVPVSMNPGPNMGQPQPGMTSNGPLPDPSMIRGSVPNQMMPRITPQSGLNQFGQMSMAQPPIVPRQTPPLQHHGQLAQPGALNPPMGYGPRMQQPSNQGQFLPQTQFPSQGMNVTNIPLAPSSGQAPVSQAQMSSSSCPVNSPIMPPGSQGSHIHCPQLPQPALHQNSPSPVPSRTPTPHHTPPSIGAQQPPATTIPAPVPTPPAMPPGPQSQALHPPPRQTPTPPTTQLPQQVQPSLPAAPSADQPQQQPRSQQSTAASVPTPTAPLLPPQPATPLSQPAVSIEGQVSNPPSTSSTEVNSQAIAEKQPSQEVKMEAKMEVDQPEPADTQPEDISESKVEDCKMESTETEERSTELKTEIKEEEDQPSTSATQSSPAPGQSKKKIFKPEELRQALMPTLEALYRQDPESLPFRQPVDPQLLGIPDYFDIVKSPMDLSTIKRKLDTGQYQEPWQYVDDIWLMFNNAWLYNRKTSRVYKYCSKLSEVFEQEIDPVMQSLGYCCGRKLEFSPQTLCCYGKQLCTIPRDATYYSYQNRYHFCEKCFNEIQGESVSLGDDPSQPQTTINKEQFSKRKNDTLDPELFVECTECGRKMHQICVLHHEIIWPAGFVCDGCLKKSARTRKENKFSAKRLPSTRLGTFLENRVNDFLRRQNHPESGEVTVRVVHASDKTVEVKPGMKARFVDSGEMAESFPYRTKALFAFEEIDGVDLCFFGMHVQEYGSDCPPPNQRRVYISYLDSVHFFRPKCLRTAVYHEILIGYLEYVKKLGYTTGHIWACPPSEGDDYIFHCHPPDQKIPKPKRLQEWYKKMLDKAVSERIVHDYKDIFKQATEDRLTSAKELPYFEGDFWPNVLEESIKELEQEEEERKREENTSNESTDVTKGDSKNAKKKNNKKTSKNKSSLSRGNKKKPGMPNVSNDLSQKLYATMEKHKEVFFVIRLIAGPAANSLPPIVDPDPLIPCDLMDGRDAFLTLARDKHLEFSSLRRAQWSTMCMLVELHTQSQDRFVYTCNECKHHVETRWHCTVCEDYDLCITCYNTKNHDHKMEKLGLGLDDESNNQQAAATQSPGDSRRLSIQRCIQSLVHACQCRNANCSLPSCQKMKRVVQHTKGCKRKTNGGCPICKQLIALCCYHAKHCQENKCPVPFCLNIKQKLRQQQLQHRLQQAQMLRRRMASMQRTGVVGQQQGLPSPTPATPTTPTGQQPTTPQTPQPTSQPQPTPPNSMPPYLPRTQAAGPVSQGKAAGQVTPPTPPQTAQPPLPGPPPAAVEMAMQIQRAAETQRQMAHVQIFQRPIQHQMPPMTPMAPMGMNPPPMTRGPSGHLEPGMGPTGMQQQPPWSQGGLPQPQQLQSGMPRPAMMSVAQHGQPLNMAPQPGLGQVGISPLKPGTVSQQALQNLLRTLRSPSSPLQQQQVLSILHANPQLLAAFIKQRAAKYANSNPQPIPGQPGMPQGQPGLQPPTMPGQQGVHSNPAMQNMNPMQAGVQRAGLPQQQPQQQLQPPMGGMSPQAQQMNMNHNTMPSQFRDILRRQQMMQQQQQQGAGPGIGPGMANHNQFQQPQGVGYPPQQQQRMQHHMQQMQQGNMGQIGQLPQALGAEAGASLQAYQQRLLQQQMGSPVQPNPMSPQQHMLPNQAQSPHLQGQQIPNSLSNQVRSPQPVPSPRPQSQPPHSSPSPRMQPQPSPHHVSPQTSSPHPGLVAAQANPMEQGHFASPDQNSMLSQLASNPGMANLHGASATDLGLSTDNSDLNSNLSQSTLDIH
UniProt Q92793: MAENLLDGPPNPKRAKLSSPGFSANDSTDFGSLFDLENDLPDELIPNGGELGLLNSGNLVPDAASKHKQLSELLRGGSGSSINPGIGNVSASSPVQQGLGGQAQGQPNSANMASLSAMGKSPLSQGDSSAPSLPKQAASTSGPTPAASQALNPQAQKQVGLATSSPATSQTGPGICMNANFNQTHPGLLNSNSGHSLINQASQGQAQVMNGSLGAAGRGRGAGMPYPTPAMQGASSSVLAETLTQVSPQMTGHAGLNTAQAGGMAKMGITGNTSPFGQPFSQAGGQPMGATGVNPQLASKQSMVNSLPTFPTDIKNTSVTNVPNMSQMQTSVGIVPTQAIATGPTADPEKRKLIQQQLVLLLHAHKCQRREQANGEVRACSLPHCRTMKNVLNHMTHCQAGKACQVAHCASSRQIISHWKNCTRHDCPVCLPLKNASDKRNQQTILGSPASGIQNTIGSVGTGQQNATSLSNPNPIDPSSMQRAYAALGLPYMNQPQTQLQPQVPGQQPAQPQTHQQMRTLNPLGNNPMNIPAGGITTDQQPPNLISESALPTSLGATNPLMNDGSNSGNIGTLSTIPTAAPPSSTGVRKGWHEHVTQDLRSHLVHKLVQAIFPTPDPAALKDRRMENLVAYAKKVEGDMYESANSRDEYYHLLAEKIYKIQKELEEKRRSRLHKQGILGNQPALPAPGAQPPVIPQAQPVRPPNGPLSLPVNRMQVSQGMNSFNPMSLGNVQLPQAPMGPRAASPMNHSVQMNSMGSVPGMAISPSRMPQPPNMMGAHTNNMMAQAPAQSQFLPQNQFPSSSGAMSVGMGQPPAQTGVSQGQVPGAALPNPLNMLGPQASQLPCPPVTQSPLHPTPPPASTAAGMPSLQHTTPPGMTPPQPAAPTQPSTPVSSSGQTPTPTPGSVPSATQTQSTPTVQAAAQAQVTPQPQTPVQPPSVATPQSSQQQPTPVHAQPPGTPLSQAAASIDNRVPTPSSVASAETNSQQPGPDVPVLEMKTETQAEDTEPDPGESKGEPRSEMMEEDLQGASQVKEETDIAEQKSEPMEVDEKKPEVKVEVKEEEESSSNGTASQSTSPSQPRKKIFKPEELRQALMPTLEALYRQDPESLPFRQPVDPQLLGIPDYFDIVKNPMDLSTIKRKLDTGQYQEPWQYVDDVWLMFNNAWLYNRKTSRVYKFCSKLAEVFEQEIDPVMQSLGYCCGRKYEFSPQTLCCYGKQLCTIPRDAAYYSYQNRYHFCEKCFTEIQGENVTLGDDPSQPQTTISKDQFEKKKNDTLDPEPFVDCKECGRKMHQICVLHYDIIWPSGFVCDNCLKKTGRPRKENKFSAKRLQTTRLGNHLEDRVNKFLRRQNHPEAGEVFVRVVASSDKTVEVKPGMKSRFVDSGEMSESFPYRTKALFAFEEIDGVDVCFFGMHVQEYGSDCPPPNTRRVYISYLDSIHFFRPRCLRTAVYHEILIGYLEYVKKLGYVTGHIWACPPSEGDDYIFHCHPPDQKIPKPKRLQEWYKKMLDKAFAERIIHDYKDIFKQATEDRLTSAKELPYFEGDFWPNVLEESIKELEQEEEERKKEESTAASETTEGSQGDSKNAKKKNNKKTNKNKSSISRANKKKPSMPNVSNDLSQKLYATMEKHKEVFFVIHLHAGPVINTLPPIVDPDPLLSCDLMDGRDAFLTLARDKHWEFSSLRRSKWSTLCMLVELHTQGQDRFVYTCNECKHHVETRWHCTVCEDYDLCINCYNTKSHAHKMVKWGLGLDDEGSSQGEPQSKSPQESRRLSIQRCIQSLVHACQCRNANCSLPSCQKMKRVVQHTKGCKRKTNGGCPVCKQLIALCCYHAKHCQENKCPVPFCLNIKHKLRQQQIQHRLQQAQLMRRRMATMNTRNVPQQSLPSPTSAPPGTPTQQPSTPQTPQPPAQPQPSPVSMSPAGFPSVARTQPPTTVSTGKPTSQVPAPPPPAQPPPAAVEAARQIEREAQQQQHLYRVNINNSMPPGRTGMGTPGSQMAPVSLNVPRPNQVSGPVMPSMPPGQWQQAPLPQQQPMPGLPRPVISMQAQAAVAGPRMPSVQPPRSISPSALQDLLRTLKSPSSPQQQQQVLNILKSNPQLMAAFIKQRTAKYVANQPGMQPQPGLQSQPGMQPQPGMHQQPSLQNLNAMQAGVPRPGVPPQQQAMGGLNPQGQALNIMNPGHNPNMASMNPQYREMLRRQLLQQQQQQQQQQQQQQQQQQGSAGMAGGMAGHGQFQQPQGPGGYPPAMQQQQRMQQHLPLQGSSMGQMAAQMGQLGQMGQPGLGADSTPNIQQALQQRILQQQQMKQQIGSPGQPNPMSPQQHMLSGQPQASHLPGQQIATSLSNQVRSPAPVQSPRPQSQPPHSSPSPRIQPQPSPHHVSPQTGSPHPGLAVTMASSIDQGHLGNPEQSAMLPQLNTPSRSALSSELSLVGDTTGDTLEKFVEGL
UniProt P36402: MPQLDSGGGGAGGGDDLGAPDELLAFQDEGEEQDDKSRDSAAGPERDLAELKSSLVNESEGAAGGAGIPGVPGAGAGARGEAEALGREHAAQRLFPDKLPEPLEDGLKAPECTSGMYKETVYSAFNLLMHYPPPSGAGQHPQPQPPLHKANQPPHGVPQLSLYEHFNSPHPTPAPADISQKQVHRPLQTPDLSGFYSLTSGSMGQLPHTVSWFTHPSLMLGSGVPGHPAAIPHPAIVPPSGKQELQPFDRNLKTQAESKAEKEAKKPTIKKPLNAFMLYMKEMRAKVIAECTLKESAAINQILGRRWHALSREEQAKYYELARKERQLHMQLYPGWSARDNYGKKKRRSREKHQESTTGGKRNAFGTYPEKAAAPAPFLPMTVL

Target: FLAG-β-catenin* (human β-catenin with S33Y) (human) (UniProt P35222)
Assay: co-IP; anti-FLAG M2 affinity gel on clarified lysates of HEK293T β-catenin KO cells transfected with FLAG-β-catenin constructs; lysis buffer 50 mM Tris HCl pH 7.4, 150 mM NaCl, 1 mM EDTA, 1% Triton X-100; eluates blotted for the partners

Substance	binding
p300 (from UniProt Q09472 1-2414)	binds
CBP (from UniProt Q92793 1-2442)	binds
TCF7 (from UniProt P36402 1-384)	binds
BRG1 (from UniProt P51532 1-1647)	binds
